± gives the standard deviation of the averaged measurements. The list shows a part of the results. Most values come without repeats; read them as rough.
Test system: Plasmodium berghei sporozoites
Assay: residual sporozoite gliding motility relative to DMSO control; higher = less inhibition of motility
Settings: 10 µM; incubation time 30 min
Protocol: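 GFP-expressing Plasmodium berghei salivary gland sporozoites (about 2000 per well, 384-well plate, RPMI with 3% BSA) were incubated 30 min with MMV Malaria Box compounds at 10 uM, then imaged at 1 Hz for 30 s. Sporozoites moving more than one parasite length were counted manually and expressed as percentage residual motility relative to DMSO controls. The pilot screen was a single assay per compound; apparent hits were repeated up to two more times. 'No observable inhibition' in the pilot screen is encoded as inactive (>50% residual, active false), a coarse placeholder rather than a measured value.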

| Compound | residual sporozoite gliding motility [%] |
| --- | --- |
| N=c1c2ccccc2nnn1-c1cccc(C(F)(F)F)c1 | > 50 |
| COc1ccc2nc(C)cc(Nc3ccc(Cl)cc3)c2c1 | > 50 |
| CCOc1ccc(C2N(C)c3ccccc3N2C)cc1 | > 50 |
| O=C(Nc1ccc(-c2nc3cc(NC(=O)c4ccc(Cl)cc4)ccc3[nH]2)cc1)c1ccc(Cl)cc1 | > 50 |
| COc1ccc(C(=O)C(CCC(CNC(C)(C)C)C(=O)c2ccc(OC)cc2)CNC(C)(C)C)cc1 (stereo not given) | > 50 |
| CC1=C(CC(=O)c2cccc([N+](=O)[O-])c2)C(=O)c2ccccc2C1=O | > 50 |
| FC(F)(F)c1cccc(Nc2nc3ccccc3nc2Nc2cccc(C(F)(F)F)c2)c1 | 29.3 ± 5 |
| O=C(c1ccccc1F)N(Cc1ccc(Cl)cc1)c1ccccn1 | > 50 |
| CCOc1ccc(CCNC(=O)c2cccs2)cc1OCC | > 50 |
| CCOc1ccc(/C=C/c2nc(=O)c3ccccc3o2)cc1 | > 50 |
| FC(F)(F)c1cccc(CNC2CCN(CCc3ccccc3)CC2)c1 | > 50 |
| COc1ccccc1CNC(=O)C1c2ccccc2C(=O)N(CC(C)C)C1c1cccs1 (stereo not given) | > 50 |
| CCN(CC)CCNc1ccnc2cc3ccccc3cc12 | > 50 |
| CCn1c(CN2CCN(Cc3ccccc3)CC2)nc2cc(NC(=O)c3cccs3)ccc21 | > 50 |
| COc1ccc(Nc2nc(N/N=C/c3ccc(O)cc3)nc(Nc3ccc([N+](=O)[O-])cc3)n2)cc1 | > 50 |
| CC(=O)NCCc1nc2ccccc2n1Cc1ccc(C(C)C)cc1 | > 50 |
| O=c1nc(C=Cc2ccc(Br)cc2)oc2ccccc12 | > 50 |
| O=C(NC1CCN(Cc2ccccc2)CC1)c1cc(-c2ccncc2)nc2ccc(Cl)cc12 | > 50 |
| COc1ccc(C(=O)Nc2nonc2-c2ccc(OC)c(OC)c2)cc1Cl | > 50 |
| CC(C)=CCN1CCC(C(=O)Nc2ccc(-c3nc4ccccc4[nH]3)cc2)CC1 | > 50 |

| Compound | residual sporozoite gliding motility [%] |
| --- | --- |
| CCN(Cc1ccccc1)C1CCN(Cc2cc(Br)ccc2O)CC1 | > 50 |
| CNCCCNc1ccnc2cc(Cl)ccc12 | > 50 |
| CN(C)CCNc1cc(-c2ccccc2)nc2ccccc12 | > 50 |
| O=C(NCc1ccco1)C1CCN(S(=O)(=O)c2ccc(Br)cc2)CC1 | > 50 |
| COc1ccc(Nc2cc(C)nc(NCc3ccccc3)n2)cc1 | > 50 |
| COc1cc(-c2nc(-c3ccc(Sc4ccccc4)cc3)c(-c3ccccc3)[nH]2)cc(OC)c1O | > 50 |
| Cc1cc(Nc2cccc(F)c2)nc(NCc2ccccc2)n1 | > 50 |
| Cc1ccc(N2C3c4ccccc4N(S(=O)(=O)c4ccc(C)cc4)C2c2ccccc2N3S(=O)(=O)c2ccc(C)cc2)cc1 | > 50 |
| O=C(Nc1ccc(C23CC4CC(CC(c5ccccc5)(C4)C2)C3)cc1)c1cccs1 | > 50 |
| c1ccc2cc3c(Nc4ccc(N5CCOCC5)cc4)ccnc3cc2c1 | > 50 |
| O=C(NCC1Cc2cccc(-c3ccncc3)c2O1)c1csc2c1CCCC2 (stereo not given) | > 50 |
| CCOC(=O)c1cnc2c(C)cccc2c1Nc1ccc(C(C)=O)cc1 | > 50 |
| OCCNc1nc(Nc2ccc(Cl)c(Cl)c2)nc2ccccc12 | > 50 |
| Cc1ccc2c(C)nc(Nc3nc(C)cc(-c4ccccc4)n3)nc2c1 | > 50 |
| CC1CCCCN1CCCNC(=O)c1ccc2c(c1)sc1nc(-c3ccc(F)cc3)cn12 (stereo not given) | > 50 |
| Nc1ccc(-c2nc3cc(Cc4ccc5[nH]c(-c6ccc(N)cc6)nc5c4)ccc3[nH]2)cc1 | > 50 |
| CCCCCCn1c(=N)n(CC(O)COc2cccc(C)c2)c2ccccc21 (stereo not given) | > 50 |
| O=C(Nc1ccc(-c2nc3cc4ccccc4cc3[nH]2)cc1)c1cccc(Br)c1 | > 50 |
| OC(CNC1CCCC1)Cn1c2ccccc2c2ccccc21 (stereo not given) | > 50 |
| COc1ccc(/C=C2/SC(Nc3ccc(F)cc3)=NC2=O)c(OC)c1 | > 50 |

Single entries from the entries so far.
`COc1cc(-c2nc(-c3ccc(Sc4ccccc4)cc3)c(-c3ccccc3)[nH]2)cc(OC)c1O` | residual sporozoite gliding motility [%]: > 50
`c1ccc2cc3c(Nc4ccc(N5CCOCC5)cc4)ccnc3cc2c1` | residual sporozoite gliding motility [%]: > 50

Reference: the supplement of paper PMC6119338
